At least one compound was matched to its structure with a doubt left.
Tests used:
melanoma = experiment: syngeneic mouse melanoma model, combination therapy; format: in vivo; conditions: combination with anti-CTLA-4 antibody
LXRβ = molecular target: T1, LXRβ (Homo sapiens, UniProt P55055); experiment: LXR isoform specificity
T1 sequence (P55055 1-460): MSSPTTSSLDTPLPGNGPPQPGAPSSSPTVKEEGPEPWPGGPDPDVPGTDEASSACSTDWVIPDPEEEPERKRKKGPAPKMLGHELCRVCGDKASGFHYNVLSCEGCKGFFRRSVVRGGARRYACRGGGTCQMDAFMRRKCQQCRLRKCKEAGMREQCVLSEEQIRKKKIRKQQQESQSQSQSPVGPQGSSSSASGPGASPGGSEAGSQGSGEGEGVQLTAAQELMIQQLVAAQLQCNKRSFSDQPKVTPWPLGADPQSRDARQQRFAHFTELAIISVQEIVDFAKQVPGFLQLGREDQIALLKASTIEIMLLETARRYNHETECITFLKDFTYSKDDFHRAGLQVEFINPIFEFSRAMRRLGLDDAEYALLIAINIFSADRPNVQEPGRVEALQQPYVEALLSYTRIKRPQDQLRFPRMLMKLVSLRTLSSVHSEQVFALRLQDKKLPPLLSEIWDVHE

In the case of `C[C@H](CCOc1cccc(CC(=O)O)c1)N(Cc1cccc(C(F)(F)F)c1Cl)CC(c1ccccc1)c1ccccc1` [Compound 1, 2-[3-[(3R)-3-[[2-chloro-3-(trifluoromethyl)phenyl]methyl-(2,2-diphenylethyl)amino]butoxy]phenyl]acetic acid], the “inhibition of tumor growth relative to either therapy alone” value (melanoma) is reported as “superior” and the “specificity for LXR isoform” value (LXRβ) is reported as “higher specificity for the LXRβ isoform”.
